Measurements taken from PubChem BioAssay AID504834 (National Center for Advancing Translational Sciences (NCATS), 2011).
The whole screen tested about 320,000 compounds, of which about 22,000 (6.9%) were called active. Inconclusive results, whose numbers are uncertain, are shown with a selection of clear calls. Calls come from the whole dose curve; as a rule, active = well fitted inhibition curve with a large enough effect; inconclusive = small, poorly fitted or top-dose-only effect, or another doubt; inactive = no such curve, though single readings can be large or run the other way. A potency beside an inconclusive call is a rough fit, not a confirmed value. Where a SMILES comes first, the peptide text is derived from it. [ ]: non-standard residue; d: D form. pGlu = O=C1CC[CH](C(=O)O)N1

assay: Primary qHTS for delayed death inhibitors of the malarial parasite plastid, 96 hour incubation; details: P. falciparum luciferase reporter growth; series mostly up to 28.7 µM; activity change, negative = inhibition: at the top concentration
How it was run: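 Two parasite generations (96 h, 37 C, 5% CO2) of compound exposure in infected erythrocytes (0.05% parasitemia, 2% hematocrit). Luciferase-reporter P. falciparum; decreased luminescence indicates inhibited growth, aimed at apicoplast-acting delayed death.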
% is set by controls: 0 for no effect and ±100 for the full control effect; potency is the fitted concentration of half-maximal effect.

Structure (SMILES) | activity change, negative = inhibition | Potency
COC(=O)C1CCN(C(=O)c2ccc3oc(Cc4ccc(Cl)cc4)nc3c2)CC1 | inactive: 1.63% | –
CCOC(=O)CCSc1cc(C)c2ccccc2n1 | – | inconclusive: 7.38 µM [inhibitor, partial curve]
Cc1ccc(Oc2ncccc2/C=N/OCc2ccc(Cl)cc2Cl)cc1 | – | inconclusive: 0.928 µM [inhibitor, partial curve, poor fit]
Cc1ccccc1OCC(=O)N1CCCCCCC1 | – | inconclusive: 10.4 µM [inhibitor, partial curve]
c1ccc2[nH]c(SCc3ccc(-c4nnco4)cc3)nc2c1 | – | inconclusive: 4.65 µM [inhibitor, partial curve]
O=C(C1CC1)N1CCc2cc(S(=O)(=O)NCc3ccccc3)ccc21 | – | inconclusive: 9.28 µM [inhibitor, partial curve, poor fit]
O=C(NCc1ccc(F)cc1)c1cccc(NC2=NC3CS(=O)(=O)CC3S2)c1 (centres undefined) | inactive: -0.15% | –
Cc1cc(C)cc(OCC(=O)NNC(=O)c2ccccn2)c1 | – | active: 3.29 µM
CCOc1ccccc1NC(=O)C1COc2ccccc2O1 (centres undefined) | – | inconclusive: 11.7 µM [inhibitor, single point]
N#C/C(C(N)=O)=C1/SC(Cc2ccc(F)cc2)C(=O)N1c1ccccc1 (centres undefined) | – | inconclusive: 2.08 µM [inhibitor, partial curve, poor fit]
O=C(Nc1cccnc1)c1ccc(C(=O)Nc2cccnc2)cc1 | – | inconclusive: 10.4 µM [inhibitor, partial curve]
Cc1ccc(NC(=O)CC(NC(=O)c2ccccc2Cl)c2ccccc2)nc1 (centres undefined) | inactive: -18.3% | –
COCCC(=O)N1CCC(Oc2ccc(C(=O)NCCCC3CCCC3)cc2)CC1 | – | active: 11.7 µM
Cc1nnc2ccc(-c3ccc(NS(=O)(=O)c4ccccc4F)cc3)nn12 | – | inconclusive: 14.7 µM [inhibitor, partial curve, poor fit]
COc1ccc(C(=O)CC(Nc2ccc([N+](=O)[O-])cc2)c2ccc(OC)cc2)cc1 (centres undefined) | – | inconclusive: 18.5 µM [inhibitor, single point]
CC1(C)C(=O)Nc2ccccc2N1C(=O)CSc1nc(-c2ccccc2)cs1 | inactive: -14.3% | –
Cc1nnc(SC(C)C(=O)Nc2nccs2)s1 (centres undefined) | – | inconclusive: 18.5 µM [inhibitor, single point]
CC[C@@H](C(=O)n1nc(C)cc1C)[C@H](NS(=O)(=O)c1ccc(C)cc1)c1ccccc1 | – | inconclusive: 13.1 µM [inhibitor, single point]
Cc1ccccc1C(=O)N1CCN(c2ccc(NC(=O)c3cccnc3Cl)cc2)CC1 | – | inconclusive: 18.5 µM [inhibitor, partial curve, poor fit]
Cc1ccc(C)c(N2CCN(C(=O)CCC(=O)Nc3nnc(C(F)(F)F)s3)CC2)c1 | – | inconclusive: 14.7 µM [inhibitor, partial curve]
CCC(C)(C)NC(=O)C(c1ccc(C)o1)N(Cc1ccc2c(c1)OCO2)C(=O)c1snc(C(N)=O)c1N (centres undefined) | – | inconclusive: 14.7 µM [inhibitor, single point]
COCCSc1ccccc1C(=O)Nc1ccccc1C(C)C | – | inconclusive: 10.4 µM [inhibitor, single point]
Cc1ccc(S(=O)(=O)N(C)CCCC(=O)Nc2ccncc2)cc1 | – | inconclusive: 18.5 µM [inhibitor, single point]

Structure (SMILES) | activity change, negative = inhibition | Potency
CCOCCCNC(=O)c1cc2c(=O)n3ccccc3nc2s1 | – | active: 10.4 µM
CCCCCCCCc1nnc(N)s1 | inactive: 52.7% | –
COc1cc(C(=O)NC2CCN(Cc3ccccc3)CC2)cc(Cl)c1OC | – | inconclusive: 18.5 µM [inhibitor, single point]
CN(C)CC(O)COc1ccc(-c2ccc(C#N)cc2)cc1 (centres undefined) | – | inconclusive: 1.85 µM [inhibitor, single point]
S=C(NCc1ccco1)Nc1ccccn1 | – | inconclusive: 18.5 µM [inhibitor, single point]
CC(C#N)(NC(=O)CN1CCN(S(=O)(=O)c2ccc(Br)cc2Cl)CC1)C1CC1 (centres undefined) | – | inconclusive: 18.5 µM [inhibitor, single point]
COc1ccc(-c2csc(NC(=O)c3ccccc3Br)c2C(=O)O)cc1 | inactive: 13% | –
Cc1ccc(NC(=O)COc2ccc(/C=C3/SC(=Nc4ccccc4)N(Cc4cccnc4)C3=O)cc2)cc1 | – | inconclusive: 18.5 µM [inhibitor, single point]
Nc1c(N(CCC2=CCCCC2)C(=O)c2ccccc2F)c(=O)[nH]c(=O)n1Cc1ccccc1 | – | inconclusive: 10.4 µM [inhibitor, single point]
COc1ccc(C)cc1S(=O)(=O)NCC(c1ccco1)N1CCc2ccccc2C1 (centres undefined) | – | inconclusive: 18.5 µM [inhibitor, single point]
Cc1ccc(S(=O)(=O)N(C)c2ccc(C(=O)Nc3ccccn3)cc2)cc1 | – | inconclusive: 11.7 µM [inhibitor, partial curve]
CCOc1ccc(C(=O)Nc2cc3c(cc2N2CCCC2)n(CC)c(=O)n3CC)cc1OCC | – | active: 11.7 µM
CC1(C)C(c2cccs2)=NC(c2ccccc2)N1O (centres undefined) | – | active: 9.28 µM
COc1ccc(N2CC(C(=O)N[C@H](C(=O)NC3CCCC3)C(C)C)CC2=O)cc1 (some centres undefined) | inactive: 36.2% | –
COCCCN(C(=O)c1cc(C)oc1C)c1c(N)n(CC(C)C)c(=O)[nH]c1=O | inactive: -7.8% | –
CC(OC(=O)C1=Cc2ccccc2OC1)C(=O)NC1CCCC1 (centres undefined) | inactive: 38.5% | –
NC(=O)c1c(NC(=O)C(=O)NCCCN2CCOCC2)sc2c1CCCC2 | – | inconclusive: 9.28 µM [inhibitor, partial curve, poor fit]
CCc1nnc(NC(=O)c2cc(-c3ccccc3)nn2-c2ccccc2)s1 | inactive: 7.07% | –
O=C(CCc1nnc(Cc2cccc(C(F)(F)F)c2)o1)NC1CC1 | – | inconclusive: 13.1 µM [inhibitor, single point]
O=C(Cn1nnc(-c2ccccc2)n1)N/N=C/c1ccco1 | inactive: 306% | –
CCOC(=O)c1cccc(NC(=O)CCS(=O)(=O)c2cccs2)c1 | – | inconclusive: 8.28 µM [inhibitor, partial curve]
CC1CCC(C(=O)NC(C(=O)NCCc2ccc(S(N)(=O)=O)cc2)C(C)C)CC1 (centres undefined) | – | inconclusive: 13.1 µM [inhibitor, single point]
COc1ccccc1/C=C/C=C1\Oc2c(ccc(O)c2CN2CCN(CCO)CC2)C1=O | – | inconclusive: 18.5 µM [inhibitor, single point]

At a glance, part of the list above:
Structure (SMILES) | activity change, negative = inhibition | Potency
N#C/C(C(N)=O)=C1/SC(Cc2ccc(F)cc2)C(=O)N1c1ccccc1 (centres undefined) | – | inconclusive: 2.08 µM [inhibitor, partial curve, poor fit]
O=C(Nc1cccnc1)c1ccc(C(=O)Nc2cccnc2)cc1 | – | inconclusive: 10.4 µM [inhibitor, partial curve]

Continuation:

Structure (SMILES) | activity change, negative = inhibition | Potency
CCOc1ccc(S(=O)(=O)N2CCN(C(=O)CCOc3ccccc3C)CC2)cc1 | – | inconclusive: 4.65 µM [inhibitor, partial curve]
COc1ccccc1NC(=O)CSc1nnc(Cc2cccs2)n1C | inactive: 49% | –
Cc1cc(Cl)c2oc(C(=O)N(C)CCCN3CCOCC3)c(C)c2c1 | – | inconclusive: 13.1 µM [inhibitor, partial curve, poor fit]
O=C(COc1ccc(Cl)cc1Cl)OCC(=O)c1ccc[nH]1 | inactive: 16.4% | –
O=C(Nc1ccccc1-c1nc2ccccc2[nH]1)c1ccc(N2C(=O)CCC2=O)cc1 | – | inconclusive: 2.94 µM [inhibitor, partial curve, poor fit]
N#CC1=C(N)Oc2cc(N)ccc2C1c1ccsc1 (centres undefined) | – | active: 10.4 µM
Cc1ccc2c(c1)C1CN(C)CCC1N2C(=O)Cc1cccs1 (centres undefined) | – | active: 0.928 µM
c1ccc(-c2nc(NC3CC3)nc(-n3ccnc3)n2)cc1 | inactive: -2.52% | –
O=C(Nc1cccc(C(=O)Nc2cccc(Br)c2)c1)c1ccccc1 | – | inconclusive: 4.15 µM [inhibitor, partial curve, poor fit]
O=C(CN1C(=O)NC(Cc2c[nH]c3ccccc23)C1=O)Nc1ccc(Br)cc1F (centres undefined) | inactive: -2.7% | –
O=C1NC(c2cccs2)Nc2ccccc21 (centres undefined) | – | inconclusive: 18.5 µM [inhibitor, partial curve, poor fit]
CCOc1ccc(N)c(SSc2cc(OCC)ccc2N)c1 | – | inconclusive: 13.1 µM [inhibitor, single point]
CCn1c(SCc2ccc(F)cc2)nc2c(c1=O)SCC2 | – | inconclusive: 0.0738 µM [inhibitor, full curve, poor fit]
NC(=O)c1cnn(-c2ccc3ccccc3c2)c1N | inactive: 155% | –
O=[N+]([O-])c1ccc2nc(C(O)C(O)c3nc4ccc([N+](=O)[O-])cc4[nH]3)[nH]c2c1 (centres undefined) | – | inconclusive: 18.5 µM [inhibitor, single point]
C=C1C(=O)O[C@@H]2[C@@H]1CC/C(C)=C\CC[C@@]1(C)O[C@H]21 | – | active: 9.53 µM
Cc1ccc(NC(=O)COC(=O)c2ccc3c(c2)OCCO3)cc1 | inactive: 16.4% | –
CCCc1cc(=O)n2[nH]c(-c3ccccc3)cc2n1 | – | inconclusive: 9.28 µM [inhibitor, single point]
CC(C)CC(NC(=O)C1CCC(=O)N1)C(=O)NC(CC(C)C)C(=O)N1CCCC1C(N)=O (centres undefined) ([pGlu]LLP-NH2; configuration not given here) | – | inconclusive: 0.0033 µM [inhibitor, full curve, poor fit]
N#Cc1ccc(C23CC4(C2)[C@H](CN(CC2CCCCC2)[C@@H]4c2ccccc2)C3c2ccc(C(F)(F)F)cc2)cc1 (some centres undefined) | – | inconclusive: 2.94 µM [inhibitor, partial curve, poor fit]
CCC1(c2ccccc2)NC(=O)N(CC(=O)Nc2ccc3c(C)cc(=O)oc3c2)C1=O (centres undefined) | inactive: -1.82% | –
Cc1nc2ncccn2c1-c1csc(Nc2ccc(O)cc2)n1 | inactive: 51.3% | –
COCCNC(=O)Cn1cnc2c(cnn2-c2ccc(C)cc2)c1=O | – | inconclusive: 0.657 µM [inhibitor, full curve, poor fit]
